Where a name gives a salt, the structure may show the parent alone. ± gives the standard deviation of the averaged measurements. This is one part of the list. Single values are uncertain, as repeats are few or missing.
Test system: RAW 264.7
Assay: HMGB1-induced TNF-alpha production relative to HMGB1-stimulated control; higher = more TNF-alpha secretion (less inhibition)
Details: stimulus: HMGB1 5 ug/ml, 18 h
[1] = compound concentration: 1 ug/ml

Structure (SMILES) | HMGB1-induced TNF-alpha production (compound concentration: 3 uM) [%] | HMGB1-induced TNF-alpha production [1] [%]
COc1cc(NS(=O)(=O)c2ccc(N)cc2)ncn1 [Sulfamonomethoxine] | 128 | 
COc1cc(NS(=O)(=O)c2ccc(N)cc2)ncn1 | 81.7 | 
Cc1cc(C)nc(NS(=O)(=O)c2ccc(N)cc2)n1 [Sulfamethazine sodium salt] | 86.1 | 
Cc1cc(C)nc(NS(=O)(=O)c2ccc(N)cc2)n1 | 92.3 | 
C=C/C(C)=C/[C@@]1(C)SC(=O)C(C)=C1O [Thiolactomycin] | 119 | 
CCOC(=O)Nc1nc2ccccc2[nH]1 | 84.1 | 
CCOC(=O)/C=C(C)/C=C/C=C(C)/C=C/c1c(C)cc(OC)c(C)c1C [Etretinate] | 91.4 ± 13 | 
NC[C@H]1O[C@H](O[C@H]2[C@H](O)[C@@H](O[C@H]3O[C@H](CO)[C@@H](O)[C@H](N)[C@H]3O)[C@H](N)C[C@@H]2N)[C@H](N)C[C@@H]1O | 99.4 ± 3.9 | 
NC[C@H]1O[C@H](O[C@H]2[C@H](O)[C@@H](O[C@H]3O[C@H](CO)[C@@H](O)[C@H](N)[C@H]3O)[C@H](N)C[C@@H]2N)[C@H](N)C[C@@H]1O [Tobramycin (free base)] | 85.1 | 
NC[C@H]1O[C@H](O[C@H]2[C@H](O)[C@@H](O[C@H]3O[C@H](CO)[C@@H](O)[C@H](N)[C@H]3O)[C@H](N)C[C@@H]2N)[C@H](N)C[C@@H]1O [Tobramycin] | 64.9 | 
COc1cc(-c2cc(=O)c3ccccc3o2)ccc1O |  | 59.7
C=CCOc1ccccc1OCC(O)CNC(C)C (stereo not drawn) [Oxprenolol hydrochloride] | 117 | 
COc1ccc(CC(=O)c2c(O)cc(O)cc2O)cc1O |  | 63.4
Cc1c(N)c(=O)n(-c2ccccc2)n1C [Ampyrone] | 76.2 | 
Nc1nc2c(cnn2CCc2ccccc2)c2nc(-c3ccco3)nn12 | 104 | 
OC[C@H]1O[C@@H](n2cnc3c(Cl)ncnc32)[C@H](O)[C@@H]1O [6-Chloropurine riboside] |  | 66.6
COc1ccc2c(c1)c(CC(=O)O)c(C)n2C(=O)c1ccccc1 [1-benzoyl-5-methoxy-2-methylindole-3-acetic acid] | 97.8 | 
O=c1[nH]ccc2c(O)cccc12 [1,5-Isoquinolinediol] | 109 | 
CC(C)(CO)[C@@H](O)C(=O)NCCC(=O)O [PANTOTHENIC ACID(d) Na salt] | 85.7 | 
CC(C)(CO)[C@@H](O)C(=O)NCCC(=O)O [Pantothenic acid] | 101 | 
Cc1cc(C(C)(C)C)cc(C)c1CC1=NCCN1 [Xylometazoline hydrochloride] | 83.6 ± 7.9 | 

Structure (SMILES) | HMGB1-induced TNF-alpha production (compound concentration: 3 uM) [%] | HMGB1-induced TNF-alpha production [1] [%]
Cc1cc(C(C)(C)C)cc(C)c1CC1=NCCN1 | 83.6 | 
CCN(CC)C(=O)C1(c2ccccc2)CC1CN (stereo not drawn) [Milnacipran] | 106 | 
CCN(CCCCOC(=O)c1ccc(OC)c(OC)c1)C(C)Cc1ccc(OC)cc1 (stereo not drawn) | 86.9 | 
CCN(CCCCOC(=O)c1ccc(OC)c(OC)c1)C(C)Cc1ccc(OC)cc1 (stereo not drawn) [Mebeverine hydrochloride] | 65.7 | 
O=P(O)(O)C(O)(Cn1ccnc1)P(=O)(O)O [Zoledronic acid] | 118 | 
O=C(c1cc(O)c(O)c([N+](=O)[O-])c1)c1ccccc1F | 103 | 
CCN(CC)CCOCCOC(=O)C1(c2ccccc2)CCCC1 [Carbetapentane citrate] | 76.2 ± 29 | 
CCN(CC)CCOCCOC(=O)C1(c2ccccc2)CCCC1 | 86.5 | 
C[C@@H]1C[C@H]2[C@@H]3CCC4=CC(=O)C=C[C@]4(C)[C@@]3(F)[C@@H](O)C[C@]2(C)[C@H]1C(=O)CO | 52.4 | 
CCN(CC)C(=O)Nc1ccc(OCC(O)CNC(C)(C)C)c(C(C)=O)c1 (stereo not drawn) [Celiprolol HCl] | 107 | 
O=C(CCBr)N1CCN(C(=O)CCBr)CC1 | 86.9 ± 5.9 | 
CCCCC1C(=O)N(c2ccccc2)N(c2ccc(O)cc2)C1=O (stereo not drawn) [Oxyphenbutazone] | 100 | 
CCCCC1C(=O)N(c2ccccc2)N(c2ccc(O)cc2)C1=O (stereo not drawn) | 76.3 | 
N[C@H]1CONC1=O [L-Cycloserine] | 70.5 | 
N[C@H]1CONC1=O [(S)-(-)-Cycloserine] | 129 | 
O=c1c(O)c(-c2ccc(O)cc2)oc2cc(O)cc(O)c12 [Kaempferol] |  | 62.2
CC(=O)Nc1ccc(OC(=O)c2ccccc2O)cc1 | 84.4 | 
COc1cc2nc(N3CCN(C(=O)C4COc5ccccc5O4)CC3)nc(N)c2cc1OC (stereo not drawn) [Doxazosin] | 98 | 
COc1cc2nc(N3CCN(C(=O)C4COc5ccccc5O4)CC3)nc(N)c2cc1OC (stereo not drawn) | 73.5 | 
COc1cc2nc(N3CCN(C(=O)C4COc5ccccc5O4)CC3)nc(N)c2cc1OC (stereo not drawn) [Doxazosin mesylate] | 93.2 ± 6.1 | 
O=C(O)C1=C(CSc2nnnn2CS(=O)(=O)O)CS[C@@H]2[C@H](NC(=O)[C@H](O)c3ccccc3)C(=O)N12 | 89.6 | 

Structure (SMILES) | HMGB1-induced TNF-alpha production (compound concentration: 3 uM) [%] | HMGB1-induced TNF-alpha production [1] [%]
CCOC(=O)[C@@H](C)Oc1cccc2c(=O)n(CC(=O)Nc3ccc4c(c3)OCCO4)ccc12 | 114 | 
CNCC(O)c1ccc(O)c(O)c1 (stereo not drawn) [Racepinephrine HCl] | 68.1 | 
c1cc(CN2CCCCC2)cc(OCCCNc2nc3ccccc3s2)c1 | 90.9 | 
CCOC1O[C@H]([C@@H](COCc2ccccc2)OCc2ccccc2)[C@H](OCc2ccccc2)[C@H]1O (stereo partly drawn) [Tribenoside] | 77.7 | 
CC(=O)Nc1c(I)c(C(=O)N[C@H]2C(O)O[C@H](CO)[C@@H](O)[C@@H]2O)c(I)c(N(C)C(C)=O)c1I (stereo partly drawn) [Metrizamide] | 70.8 | 
NC[C@H](O)c1ccc(O)c(O)c1 | 51.1 | 
CCN(CC)CCNC(=O)c1ccc(N)cc1 [Procainamide hydrochloride] | 84.7 ± 28 | 
CCN(CC)CCNC(=O)c1ccc(N)cc1 | 79.3 | 
CCN(CC)CCNC(=O)c1ccc(N)cc1 [Procainamide] | 105 | 
Cc1cc2c(C(C)C)c(O)c(O)c3c2c(c1-c1c(C)cc2c(C(C)C)c(O)c(O)c4c2c1OC4N)OC3N (stereo not drawn) |  | 78.3
c1ccc2c(c1)CC(N1CCN(c3cccc4c3OCCO4)CC1)C2 | 101 | 
CCCCCCOc1ccccc1C(N)=O | 82.7 | 
CC[C@H]1OC(=O)[C@H](C)[C@@H](O[C@H]2C[C@@](C)(OC)[C@@H](O)[C@H](C)O2)[C@H](C)[C@@H](O[C@@H]2O[C@H](C)C[C@H](N(C)C)[C@H]2O)[C@](C)(O)C[C@@H](C)CN(C)[C@H](C)[C@@H](O)[C@]1(C)O | 81 | 
CC[C@H]1OC(=O)[C@H](C)[C@@H](O[C@H]2C[C@@](C)(OC)[C@@H](O)[C@H](C)O2)[C@H](C)[C@@H](O[C@@H]2O[C@H](C)C[C@H](N(C)C)[C@H]2O)[C@](C)(O)C[C@@H](C)CN(C)[C@H](C)[C@@H](O)[C@]1(C)O [Azithromycin] | 95.6 ± 17 | 
C[C@@H]1CCC[C@H](C)N1NC(=O)c1ccc(Cl)c(S(N)(=O)=O)c1 [Clopamide] | 83 ± 18 | 
CCC(C)(C)N=C(NC#N)Nc1cccnc1 | 118 | 
CN[C@H]1CC[C@@H](c2ccc(Cl)c(Cl)c2)c2ccccc21 [Sertraline] | 99.7 ± 15 | 
CN[C@H]1CC[C@@H](c2ccc(Cl)c(Cl)c2)c2ccccc21 [Sertraline hydrochloride] | 92.3 | 
CN[C@H]1CC[C@@H](c2ccc(Cl)c(Cl)c2)c2ccccc21 | 95.6 | 
COc1cc2ccc(=O)oc2c(O)c1O [Fraxetin] |  | 66.6
Cc1cc2c(C(C)C)c(O)c(O)c(/C=N/Nc3cccc(Cl)n3)c2c(O)c1-c1c(C)cc2c(C(C)C)c(O)c(O)c(/C=N/Nc3cccc(Cl)n3)c2c1O |  | 67.8

Structure (SMILES) | HMGB1-induced TNF-alpha production (compound concentration: 3 uM) [%] | HMGB1-induced TNF-alpha production [1] [%]
CC(CNC1CCCCC1)OC(=O)c1ccccc1 (stereo not drawn) [Hexylcaine hydrochloride] | 66 | 
CC(C)[C@H]1CC[C@H](C)C[C@@H]1O [(1S,2R,5S)-(+)-Menthol] |  | 68.2
Nc1ccc(S(=O)(=O)Nc2nccs2)cc1 [Sulfathiazole] | 73.2 | 
Nc1ccc(S(=O)(=O)Nc2nccs2)cc1 | 95.8 | 
Cc1ccc(-c2cc(C(F)(F)F)nn2-c2ccc(S(N)(=O)=O)cc2)cc1 [Celecoxib] | 84.5 ± 9.1 | 
Cc1ccc(-c2cc(C(F)(F)F)nn2-c2ccc(S(N)(=O)=O)cc2)cc1 | 77.3 | 
O=C1c2ccccc2C(=O)c2c(O)c(O)cc(O)c21 [Purpurin] |  | 67.8
COc1cc2cc(Oc3ccc4ccc(=O)oc4c3)c(=O)oc2cc1OC(C)=O [Daphnoretine Acetate] |  | 60.8
CC(C)[N+]1(C)[C@@H]2CC[C@H]1C[C@@H](OC(=O)C(CO)c1ccccc1)C2 (stereo partly drawn) | 98.6 | 
CC(C)[N+]1(C)[C@@H]2CC[C@H]1C[C@@H](OC(=O)C(CO)c1ccccc1)C2 (stereo partly drawn) [Ipratropium] | 98.5 | 
CC(C)[N+]1(C)[C@@H]2CC[C@H]1C[C@@H](OC(=O)C(CO)c1ccccc1)C2 (stereo partly drawn) [Ipratropium bromide] | 83 | 
C[C@]12CC[C@@H]3c4ccc(O)cc4C[C@@H](CCCCCCCCC[S+]([O-])CCCC(F)(F)C(F)(F)F)[C@H]3[C@@H]1CC[C@@H]2O (stereo partly drawn) [Fulvestrant] | 81.6 ± 5.6 | 
O=C(O)[C@@H]1[C@H]2C[C@H]3c4[nH]c5ccccc5c4CCN3C[C@@H]2CC[C@@H]1O [Yohimbinic acid monohydrate] |  | 54.4
COc1cc(CNC(=O)CCCC/C=C/C(C)C)ccc1O | 105 | 
COc1cc(CNC(=O)CCCC/C=C/C(C)C)ccc1O [Capsaicin] | 102 ± 7.1 | 63.7
CO/N=C(\C(=O)N[C@@H]1C(=O)N2C(C(=O)O)=C(COC(C)=O)CS[C@H]12)c1csc(N)n1 [Cefotaxime sodium] | 76.9 | 
CO/N=C(\C(=O)N[C@@H]1C(=O)N2C(C(=O)O)=C(COC(C)=O)CS[C@H]12)c1csc(N)n1 [Cefotaxime Acid] | 96.1 | 
CO/N=C(\C(=O)N[C@@H]1C(=O)N2C(C(=O)O)=C(COC(C)=O)CS[C@H]12)c1csc(N)n1 [Cefotaxime sodium salt] | 75.8 | 
CO/N=C(\C(=O)N[C@@H]1C(=O)N2C(C(=O)O)=C(COC(C)=O)CS[C@H]12)c1csc(N)n1 | 86.7 | 

4 records drawn at random from the list so far:
Structure (SMILES) | HMGB1-induced TNF-alpha production (compound concentration: 3 uM) [%] | HMGB1-induced TNF-alpha production [1] [%]
CCN(CCCCOC(=O)c1ccc(OC)c(OC)c1)C(C)Cc1ccc(OC)cc1 (stereo not drawn) [Mebeverine hydrochloride] | 65.7 | 
COc1ccc2c(c1)c(CC(=O)O)c(C)n2C(=O)c1ccccc1 [1-benzoyl-5-methoxy-2-methylindole-3-acetic acid] | 97.8 | 
O=C(CCBr)N1CCN(C(=O)CCBr)CC1 | 86.9 ± 5.9 | 
CO/N=C(\C(=O)N[C@@H]1C(=O)N2C(C(=O)O)=C(COC(C)=O)CS[C@H]12)c1csc(N)n1 [Cefotaxime Acid] | 96.1 | 

Reference: the supplement of paper PMC3682954
